According to patent US20220054447A1, “CANNABIS COMPOSITIONS AND METHODS” (priority 2018, published 2022):

Key:
[1] = Trial 3: effect of solvents on terpene recoveries from a gas standard; conditions: for Terpenes, concentration in sample C02: terpenes in ethanol, RPC 286508-2, RL 0.0001; for Terpenes, concentration in sample C01: terpenes in ethanol-hexane, RPC 286508-1, RL 0.0001; for Terpenes, concentration in sample C03: terpenes in hexane, RPC 286508-3, RL 0.0001
[2] = Trial 10: collection of cannabis vapor at 210 °C using glass fiber filter pads; conditions: for Terpenes in cannabis oil, Client Sample ID N01: RPC Sample ID 293753-01; for Terpenes in cannabis oil, Client Sample ID N01 / Terpenes in cannabis oil, Client Sample ID N03 / Terpenes in cannabis oil, Client Sample ID N02 / Terpenes in cannabis oil, Client Sample ID P01 / Terpenes in cannabis oil, Client Sample ID P02 / Terpenes in cannabis oil, Client Sample ID P03: Cannabis Vapor In Hexane; for Terpenes in cannabis oil, Client Sample ID N03: RPC Sample ID 293753-03; for Cannabinoids in oil by HPLC, sample N11 (Cannabis Vapor In Methanol): RPC 293753-04; for Cannabinoids in oil by HPLC, sample N11 (Cannabis Vapor In Methanol) / Terpenes in cannabis oil, sample N01 (Cannabis Vapor In Hexane): Trial 10 vapor 210° C., first trap (filter pad extract); for Cannabinoids in oil by HPLC, Client Sample ID N11: RPC Sample ID 293753-04; for Cannabinoids in oil by HPLC, Client Sample ID P11: RPC Sample ID 293753-12; for Cannabinoids in oil by HPLC, sample N12 (Cannabis Vapor In Methanol): RPC 293753-05; for Cannabinoids in oil by HPLC, sample N12 (Cannabis Vapor In Methanol) / Terpenes in cannabis oil, sample N02 (Cannabis Vapor In Hexane) / Terpenes in cannabis oil, sample N03 (Cannabis Vapor In Hexane): Trial 10, trap after filter pad; for Cannabinoids in oil by HPLC, Client Sample ID N12: RPC Sample ID 293753-05; for Terpenes in cannabis oil, sample N01 (Cannabis Vapor In Hexane): RPC 293753-01; for Terpenes in cannabis oil, sample N02 (Cannabis Vapor In Hexane): RPC 293753-02; for Terpenes in cannabis oil, sample N03 (Cannabis Vapor In Hexane): RPC 293753-03; for Terpenes in cannabis oil, Client Sample ID N02: RPC Sample ID 293753-02; for Terpenes in cannabis oil, Client Sample ID P01: RPC Sample ID 293753-09; for Terpenes in cannabis oil, Client Sample ID P02: RPC Sample ID 293753-10; for Terpenes in cannabis oil, Client Sample ID P03: RPC Sample ID 293753-11; for Mass recovered from vapor: Trial 10, terpenes, broken pellets 232.3 mg, 210° C., 6 minutes, 1 filter pad and 2 impingers, hexane
[3] = Cannabis Vapor In Methanol, RL 0.001

Row | Molecule | Terpenes, concentration in sample C02 [1] [%] | Terpenes, concentration in sample C01 [1] [%] | Terpenes, concentration in sample C03 [1] [%] | Terpenes in cannabis oil, Client Sample ID N01 ([2]; RL 0.001) [mg/mL] | Terpenes in cannabis oil, Client Sample ID N03 ([2]; RL 0.001) [mg/mL] | also measured
1 | CC1=CCC2C(C1)C2(C)C (stereo not shown) [3-carene] | <0.0001 | <0.0001 | <0.0001 | <0.001 | <0.001 | 
2 | CC1=CCC2CC1C2(C)C (stereo not drawn) [Alpha pinene] | <0.0001 | 0.0002 | 0.0002 | <0.001 | <0.001 | 
3 | CC(C)=CCC[C@](C)(O)[C@@H]1CC=C(C)CC1 [Alpha-bisabolol] | <0.0001 | <0.0001 | <0.0001 | 0.005 | <0.001 | 
4 | C=C1CCC2CC1C2(C)C (stereo not drawn) [Beta pinene] | <0.0001 | 0.0002 | 0.0002 | <0.001 | <0.001 | 
5 | CC1(C)C2CCC1(C)C(O)C2 (stereo not shown) [Borneol] | <0.0001 | <0.0001 | <0.0001 | <0.001 | <0.001 | 
6 | CCCCCc1cc(O)c2c(c1)OC(C)(CCC=C(C)C)C=C2 (stereo not shown) [CBC, cannabichromene] |  |  |  |  |  | Cannabinoids in oil by HPLC, sample N11 (Cannabis Vapor In Methanol) ([2]; RL 0.001): 0.009 mg/mL; Cannabinoids in oil by HPLC, Client Sample ID N11 [2, 3]: 0.009 mg/mL; Cannabinoids in oil by HPLC, Client Sample ID P11 [2, 3]: 0.010 mg/mL
7 | C=C(C)[C@@H]1CCC(C)=C[C@H]1c1c(O)cc(CCCCC)cc1O [CBD, cannabidiol, reference compound] |  |  |  |  |  | Cannabinoids in oil by HPLC, sample N11 (Cannabis Vapor In Methanol) ([2]; RL 0.001): 0.123 mg/mL; Cannabinoids in oil by HPLC, Client Sample ID N11 [2, 3]: 0.123 mg/mL; Cannabinoids in oil by HPLC, Client Sample ID P11 [2, 3]: 0.088 mg/mL
8 | C=C(C)[C@@H]1CCC(C)=C[C@H]1c1c(O)cc(CCCCC)c(C(=O)O)c1O [CBDA, cannabidiolic acid] |  |  |  |  |  | Cannabinoids in oil by HPLC, sample N11 (Cannabis Vapor In Methanol) ([2]; RL 0.001): 0.003 mg/mL; Cannabinoids in oil by HPLC, Client Sample ID N11 [2, 3]: 0.003 mg/mL; Cannabinoids in oil by HPLC, Client Sample ID P11 [2, 3]: 0.002 mg/mL
9 | CCCCCc1cc(O)c(C/C=C(\C)CCC=C(C)C)c(O)c1 [CBG, cannabigerol] |  |  |  |  |  | Cannabinoids in oil by HPLC, sample N11 (Cannabis Vapor In Methanol) ([2]; RL 0.001): 0.010 mg/mL; Cannabinoids in oil by HPLC, Client Sample ID N11 [2, 3]: 0.010 mg/mL; Cannabinoids in oil by HPLC, Client Sample ID P11 [2, 3]: 0.012 mg/mL
10 | CCCCCc1cc(O)c(C/C=C(\C)CCC=C(C)C)c(O)c1C(=O)O [CBGA, cannabigerolic acid] |  |  |  |  |  | Cannabinoids in oil by HPLC, sample N11 (Cannabis Vapor In Methanol) ([2]; RL 0.001): 0.001 mg/mL; Cannabinoids in oil by HPLC, sample N12 (Cannabis Vapor In Methanol) ([2]; RL 0.001): <0.001 mg/mL; Cannabinoids in oil by HPLC, Client Sample ID N11 [2, 3]: 0.001 mg/mL; Cannabinoids in oil by HPLC, Client Sample ID N12 [2, 3]: <0.001 mg/mL; Cannabinoids in oil by HPLC, Client Sample ID P11 [2, 3]: <0.001 mg/mL; Cannabinoids in oil by HPLC, Client Sample ID P12 ([2]; RPC Sample ID 293753-13, Cannabis Vapor In Methanol, RL 0.001): 0.001 mg/mL
11 | CCCCCc1cc(O)c2c(c1)OC(C)(C)c1ccc(C)cc1-2 [CBN, cannabinol] |  |  |  |  |  | Cannabinoids in oil by HPLC, sample N11 (Cannabis Vapor In Methanol) ([2]; RL 0.001): 0.057 mg/mL; Cannabinoids in oil by HPLC, Client Sample ID N11 [2, 3]: 0.057 mg/mL; Cannabinoids in oil by HPLC, Client Sample ID P11 [2, 3]: 0.032 mg/mL
12 | C=CC(C)(O)CC/C=C(/C)CCC=C(C)C (stereo not drawn) [Cis-nerolidol] | <0.0001 | <0.0001 | <0.0001 | <0.001 | <0.001 | 
13 | C=C/C(C)=C\CC=C(C)C [Cis-ocimene] | <0.0001 | <0.0001 | <0.0001 | <0.001 | <0.001 | 
14 | CC12CCC(CC1)C(C)(C)O2 [Eucalyptol] | <0.0001 | <0.0001 | <0.0001 | <0.001 | <0.001 | 
15 | CC12CCC(C1)C(C)(C)C2O (stereo not shown) [Fenchol] | <0.0001 | <0.0001 | <0.0001 | <0.001 | <0.001 | 
16 | C[C@H]1CC[C@@H](C(C)(C)O)CC2=C1CC[C@@H]2C [Guaiol] | <0.0001 | <0.0001 | <0.0001 | <0.001 | <0.001 | 
17 | C/C1=C\CC/C(C)=C/CC(C)(C)/C=C/C1 [Humulene] | <0.0001 | <0.0001 | <0.0001 | 0.001 | <0.001 | 
18 | C=C(C)[C@H]1CC=C(C)CC1 [Limonene] | <0.0001 | <0.0001 | <0.0001 | <0.001 | <0.001 | 
19 | C=CC(C)(O)CCC=C(C)C (stereo not shown) [Linalool] | <0.0001 | <0.0001 | <0.0001 | 0.001 | <0.001 | 
20 | C=CC(=C)CCC=C(C)C [Myrcene] | <0.0001 | <0.0001 | <0.0001 | <0.001 | <0.001 | 
21 | C=C1CCC2(C(C)C)CC12 (stereo not shown) [Sabinene] | <0.0001 | <0.0001 | <0.0001 | <0.001 | <0.001 | 
22 | CCCCCc1cc2c(c(O)c1C(=O)O)[C@@H]1C=C(C)CC[C@H]1C(C)(C)O2 [THCA, tetrahydrocannabinolic acid] |  |  |  |  |  | Cannabinoids in oil by HPLC, sample N12 (Cannabis Vapor In Methanol) ([2]; RL 0.001): <0.001 mg/mL; Cannabinoids in oil by HPLC, Client Sample ID N12 [2, 3]: <0.001 mg/mL; Cannabinoids in oil by HPLC, Client Sample ID P11 [2, 3]: 0.002 mg/mL
23 | CC1=CCC(=C(C)C)CC1 [Terpinolene] | <0.0001 | <0.0001 | <0.0001 | <0.001 | <0.001 | 
24 | C=CC(C)(O)CC/C=C(\C)CCC=C(C)C (stereo not drawn) [Trans-nerolidol] | <0.0001 | <0.0001 | <0.0001 | 0.002 | <0.001 | 
25 | C=C/C(C)=C/CC=C(C)C [Trans-ocimene] | <0.0001 | <0.0001 | <0.0001 | <0.001 | <0.001 | 
26 | C=C(C)[C@@H]1CCC2=CCC[C@@H](C)[C@]2(C)C1 [Valencene] | <0.0001 | <0.0001 | <0.0001 | 0.001 | <0.001 | 
27 | Caryophyllene | <0.0001 | <0.0001 | <0.0001 | 0.003 | <0.001 | Terpenes in cannabis oil, sample N01 (Cannabis Vapor In Hexane) ([2]; RL 0.001): 0.003 mg/mL; Terpenes in cannabis oil, sample N02 (Cannabis Vapor In Hexane) ([2]; RL 0.001): <0.001 mg/mL; Terpenes in cannabis oil, sample N03 (Cannabis Vapor In Hexane) ([2]; RL 0.001): <0.001 mg/mL; Terpenes in cannabis oil, Client Sample ID N02 ([2]; RL 0.001): <0.001 mg/mL; Terpenes in cannabis oil, Client Sample ID P01 ([2]; RL 0.001): 0.002 mg/mL; Terpenes in cannabis oil, Client Sample ID P02 ([2]; RL 0.001): <0.001 mg/mL; Terpenes in cannabis oil, Client Sample ID P03 ([2]; RL 0.001): <0.001 mg/mL; Mass recovered from vapor [2]: 0.03 mg
28 | Terpineol | <0.0001 | <0.0001 | <0.0001 | 0.003 | <0.001 | Terpenes in cannabis oil, sample N01 (Cannabis Vapor In Hexane) ([2]; RL 0.001): 0.003 mg/mL; Terpenes in cannabis oil, sample N02 (Cannabis Vapor In Hexane) ([2]; RL 0.001): <0.001 mg/mL; Terpenes in cannabis oil, sample N03 (Cannabis Vapor In Hexane) ([2]; RL 0.001): <0.001 mg/mL; Terpenes in cannabis oil, Client Sample ID N02 ([2]; RL 0.001): <0.001 mg/mL; Terpenes in cannabis oil, Client Sample ID P01 ([2]; RL 0.001): 0.002 mg/mL; Terpenes in cannabis oil, Client Sample ID P02 ([2]; RL 0.001): <0.001 mg/mL; Terpenes in cannabis oil, Client Sample ID P03 ([2]; RL 0.001): <0.001 mg/mL; Mass recovered from vapor [2]: 0.03 mg
